{
  "source": "patent US8404648B2",
  "about": "“Polypeptides KXK and their use” (Sederma, priority 2006, dated 2013)",
  "format_in_all_cases": "cell-based",
  "key": {"[1]": {"tested_on": "Collagen I synthesis, Normal Human Dermal Fibroblasts (NHDF)", "assay": "Collagen I synthesis by NHDF, direct ELISA on supernatants after 3 days", "conditions": "for Variation of Collagen I synthesis (mean, in % of negative control): NHDF, 3 days", "method": "(§1) Products: Pal-KTFK (SEQ ID NO: 7), Ela-KTAK (SEQ ID NO: 9) and Ela-KTFK (SEQ ID No: 8) were tested from 2 to 6 ppm, and Pal-KAvaK was tested from 1 to 4 ppm. Solvent=DMSO 0.08%. TGF-beta1 10^−6%, was the positive control for collagen I and fibronectin studies.\n(§2) Principle of the study: Normal Human Dermal Fibroblasts (NHDF) were cultivated in an appropriate culture medium (i.e. complete DMEM with fetal calf serum). After cell anchorage, cell layers were rinsed with saline buffer and contact with molecules to be tested were performed in a complete DMEM without fetal calf serum. This medium contained ascorbate (sodium salt) and beta-aminopropionitrile, monofumarate. After 3 days of incubation, supernatants were collected and frozen. Survival was estimated on cell layer using a fluorescent probe. Collagen I was estimated using an original direct ELISA method, Fibronectin and Collagen IV were estimated using ELISA commercial kits.\n(§3) Results: Statistical analysis were performed on Collagen I data (n=5/assay) or fibronectin data (n=5/assay) or Collagen IV data (n=5/assay). Results obtained with molecules were compared to negative control. All data are in ng/10E6 cells. A Student t test for non paired values was used; significativity was obtained if p<0.05 or p<0.01."}, "[2]": {"tested_on": "Fibronectin synthesis, Normal Human Dermal Fibroblasts (NHDF)", "assay": "Fibronectin synthesis by NHDF, commercial ELISA kit on supernatants after 3 days", "conditions": "for Variation of Fibronectin synthesis (mean, in % of negative control): NHDF, 3 days", "method": "as §1, §2, §3"}, "[3]": {"tested_on": "Collagen IV synthesis, Normal Human Dermal Fibroblasts (NHDF)", "assay": "Collagen IV synthesis by NHDF, commercial ELISA kit on supernatants after 3 days", "conditions": "for Variation of Collagen IV synthesis (mean, in % of negative control): NHDF, 3 days", "method": "as §1, §2, §3"}},
  "note": "Not every detail of the peptide structures is certain; ends, links or a residue may be inferred. Where a SMILES comes first, the peptide text is derived from it. The star is where a group is joined. Palmitoyl = CCCCCCCCCCCCCCCC(=O)*",
  "data": [
    {"compound": "CCCCCCCCCCCCCCCC(=O)N[C@@H](CCCCN)C(=O)N[C@H](C(=O)N[C@@H](Cc1ccccc1)C(=O)N[C@@H](CCCCN)C(=O)O)[C@@H](C)O", "note": "[Pal-KTFK, Pal-Lys-Thr-Phe-Lys] (Palmitoyl-KTFK-OH)", "values": [
      {"measurement": "Variation of Collagen I synthesis (mean, in % of negative control)", "setting": "[1]; 2 ppm", "value": 3, "unit": "%"},
      {"measurement": "Variation of Collagen I synthesis (mean, in % of negative control)", "setting": "[1]; 4 ppm", "value": 38, "unit": "%"},
      {"measurement": "Variation of Collagen I synthesis (mean, in % of negative control)", "setting": "[1]; 6 ppm", "value": 81, "unit": "%"},
      {"measurement": "Collagen I synthesis, result in words", "setting": "[1]; 6 ppm, vs negative control", "value": "increase"},
      {"measurement": "Variation of Fibronectin synthesis (mean, in % of negative control)", "setting": "[2]; 2 ppm", "value": 12, "unit": "%"},
      {"measurement": "Variation of Fibronectin synthesis (mean, in % of negative control)", "setting": "[2]; 4 ppm", "value": 36, "unit": "%"},
      {"measurement": "Variation of Fibronectin synthesis (mean, in % of negative control)", "setting": "[2]; 6 ppm", "value": 55, "unit": "%"},
      {"measurement": "Fibronectin synthesis, result in words", "setting": "[2]; 6 ppm, vs negative control", "value": "increase"},
      {"measurement": "Variation of Collagen IV synthesis (mean, in % of negative control)", "setting": "[3]; 2 ppm", "value": 10, "unit": "%"},
      {"measurement": "Variation of Collagen IV synthesis (mean, in % of negative control)", "setting": "[3]; 4 ppm", "value": 24, "unit": "%"},
      {"measurement": "Variation of Collagen IV synthesis (mean, in % of negative control)", "setting": "[3]; 6 ppm", "value": 36, "unit": "%"},
      {"measurement": "Collagen IV synthesis, result in words", "setting": "[3]; 6 ppm, vs negative control", "value": "increase"}
    ]}
  ]
}
